From paper PMC7390679 (Bioorganic chemistry, 2020)

Columns and labels:
EV-A71 Tainan/4643/98 = assay: CPE antiviral assay, EV-A71 Tainan/4643/98 in RD cells; type: cell-based; conditions: Enterovirus A, EVA71, RD, read-out: EC50 against EV-A71 Tainan
CVB3 = assay: CPE antiviral assay, CVB3 in Vero C1008 cells; type: cell-based; conditions: Enterovirus B, CVB3, Vero C1008, read-out: EC50 against CVB3

Compound: CNCCC(Oc1ccc(C(F)(F)F)cc1)c1ccccc1 (centres unmarked) [fluoxetine]
- EC50 (EV-A71 Tainan/4643/98): > 10 µM
- EC50 (CVB3): 2.1 µM
